Experimental data reported in PubChem BioAssay AID540276 (National Center for Advancing Translational Sciences (NCATS), 2011).
The campaign covered roughly 300,000 compounds. About 5,400 (1.8%) were called active. The inconclusive results got no clear call from the source; some entries with a clear call stand among them for comparison. Calls follow the shape of the full dose curve; tested in HEK293 cells. Potencies beside an inconclusive call are fits to weak or partial responses and may not hold up.

assay: qHTS for inhibitors of binding or entry into cells for Marburg Virus; settings: Marburg virus pseudotyped entry inhibition, cell reporter; activity change, negative = inhibition: at 37.8 µM (top of the series) unless noted
% is scaled to controls: 0 for no effect and ±100 for the full control effect; potency is read from the fitted curve at half-maximal effect.

| SMILES | Potency | activity change, negative = inhibition |
| --- | --- | --- |
| CC(C)CNC(=O)C(=O)Nc1ccc(N(C)C)cc1 | inconclusive: 6.51 µM [activator, partial curve, poor fit] |  |
| COc1ccc2[nH]c(=O)c(CN(C(=O)C(C)C)c3ccccc3OC)cc2c1 | inconclusive: 1.26 µM [inhibitor, partial curve, poor fit] |  |
| O=S(=O)(c1ccccc1)c1nc(-c2ccco2)oc1N1CCCCC1 |  | inactive: 0.447% [at 46.1 µM] |
| CC(=O)Nc1cccc(S(=O)(=O)N2CCCCCC2)c1 |  | inactive: -28.2% [at 46.1 µM] |
| O=C(Nc1cccc2cccnc12)c1ccc(Br)o1 |  | inactive: -3.54% |
| Cc1[nH]c2ccccc2c1C(=O)CSc1ccccn1 | inconclusive: 10 µM [activator, partial curve, poor fit] |  |
| Cc1ccc(N2NC(=O)/C(=C/c3ccc(-c4ccc(Cl)c(C(=O)O)c4)o3)C2=O)cc1 | inconclusive: 5.62 µM [activator, single point] |  |
| CC(C)c1ccc(NC(=O)CSc2ncccc2C(=O)Oc2cccc([N+](=O)[O-])c2)cc1 | inconclusive: 8.91 µM [inhibitor, partial curve, poor fit] |  |
| OCC1(Cc2ccccc2F)CCCN(CC2CCCCC2)C1 (centres undefined) | inconclusive: 7.94 µM [inhibitor, partial curve, poor fit] |  |
| Cn1c(=N)c(S(=O)(=O)c2ccc(F)cc2)cc2c(=O)n3ccccc3nc21 | inconclusive: 23.1 µM [activator, single point] |  |
| O=C(Nc1ccc(-c2cn3ccsc3n2)cc1)C1CCCC1 | inconclusive: 31.6 µM [inhibitor, single point] |  |
| Cc1ccc(OCC(=O)N2CCCCCCC2)cc1C | inconclusive: 35.5 µM [activator, single point] |  |
| CCOC(=O)c1ccc(NC(=O)c2csnn2)cc1 | inconclusive: 11.2 µM [activator, partial curve, poor fit] |  |
| CC(NC(=O)c1ccc(Br)s1)c1ccncc1 (centres undefined) | inconclusive: 22.4 µM [inhibitor, partial curve, poor fit] |  |
| CCSc1nsc(NC(=O)Nc2ccccc2F)n1 | inconclusive: 2.82 µM [inhibitor, single point] |  |
| COc1ccc(CCNC(=O)CSc2nnnn2-c2cccc(C(C)=O)c2)cc1OC |  | inactive: 11.8% [at 46.1 µM] |
| CC(=O)Nc1ccc(S(=O)(=O)NNC(=O)c2ccc3c(c2)OCO3)cc1 | inconclusive: 1.26 µM [inhibitor, single point] |  |
| COc1ccc(C(=O)Nc2ccc(Nc3ccccc3)cc2)cc1Br |  | inactive: -13.7% [at 46.1 µM] |
| Cc1cc(C)cc(Oc2ccc(NC(=O)C3CC=CCC3C(=O)O)cc2)c1 (centres undefined) | inconclusive: 35.5 µM [inhibitor, partial curve, poor fit] |  |
| Cc1cccc2cc(C(c3nnnn3Cc3ccc4c(c3)OCO4)N3CCCC3)c(=O)[nH]c12 (centres undefined) | inactive |  |
| Cc1cccc(Nc2nnc(-c3ccc(N4CCOCC4)c([N+](=O)[O-])c3)c3ccccc23)c1 | active: 2.24 µM |  |
| COc1ccc(C(=O)/C=C/c2ccc(OC)c(COc3ccc(F)cc3)c2)cc1 | inconclusive: 10.3 µM [inhibitor, partial curve, poor fit] |  |
| COc1ccc(OC)c(/C=C/c2nc3ccccc3[nH]c2=O)c1 | inconclusive: 35.5 µM [inhibitor, single point] |  |

Single values from above.
Potency with O=C(Nc1ccc(-c2cn3ccsc3n2)cc1)C1CCCC1 reads inconclusive: 31.6 µM [inhibitor, single point]
activity change, negative = inhibition with CC(=O)Nc1cccc(S(=O)(=O)N2CCCCCC2)c1 reads inactive: -28.2% [at 46.1 µM]
Potency with COc1ccc2[nH]c(=O)c(CN(C(=O)C(C)C)c3ccccc3OC)cc2c1 reads inconclusive: 1.26 µM [inhibitor, partial curve, poor fit]

The list goes on:

| SMILES | Potency | activity change, negative = inhibition |
| --- | --- | --- |
| NC(=O)NO | inconclusive: 5.62 µM [inhibitor, single point] |  |
| COC(=O)c1c(C)n(-c2ccc(C)cc2)c2ccc(O)cc12 | inconclusive: 20.6 µM [inhibitor, partial curve] |  |
| Cc1cccc(C)c1Nc1nnc(SCc2cc([N+](=O)[O-])cc3c2OCOC3)s1 | inconclusive: 20.6 µM [inhibitor, single point] |  |
| CC1(C)Cc2c(sc3nc4n(c(=O)c23)CCC4)CO1 |  | inactive: 13.6% |
| O=C(Cc1ccc(Cl)cc1)Nc1ccccc1C(=O)N1CCCCC1 |  | inactive: -17.1% |
| COc1ccc(Nc2nnc(SCC(=O)c3cc(C)n(CC4CCCO4)c3C)s2)cc1 (centres undefined) | inconclusive: 35.5 µM [inhibitor, single point] |  |
| Cc1c(C(=O)N2CCCCC2CCN2CCCC2=O)oc2c(F)cccc12 (centres undefined) |  | inactive: -1.2% |
| CCC(C(=O)c1ccccc1)N(C(=O)c1ccccc1Cl)N1C(=O)C2C3C=CC(C3)C2C1=O (centres undefined) |  | inactive: -21.4% |
| Nc1nc(SCC(=O)NCc2ccccc2Cl)[nH]c(=O)c1NC(=O)c1ccccc1F | inconclusive: 6.31 µM [activator, single point] |  |
| CCCCC(=O)NC1=C(C(=O)OC)SCC1 | inconclusive: 0.316 µM [inhibitor, partial curve, poor fit] |  |
| CC1CCN(C(=O)CSc2nnc(N)s2)CC1 |  | inactive: 2.33% [at 46.1 µM] |
| COc1ccc(C2=CC(c3ccc(OC)c(OC)c3)NC(=S)N2)cc1 (centres undefined) |  | inactive: -13.2% [at 46.1 µM] |
| O=C(COC(=O)c1ccccc1NC(=O)c1ccco1)NC1CCCCC1 |  | inactive: 1.96% [at 46.1 µM] |
| Clc1ccc2nc(SCc3nnc(-c4ccccc4)o3)[nH]c2c1 | inconclusive: 1.26 µM [inhibitor, single point] |  |
| Cc1cc(/C=C(\C#N)C(=O)NCc2cccs2)c(C)n1-c1ccc([N+](=O)[O-])cc1 | inconclusive: 1.16 µM [inhibitor, single point] |  |
| CC(=O)c1cc2c(cc1NC(=O)CSc1nc3ccc(C)cc3[nH]1)OCO2 |  | inactive: -24.5% |
| COC(=O)C1=C(C)N(Cc2ccco2)C(=O)/C1=C\c1ccc([N+](=O)[O-])cc1 | inconclusive: 22.4 µM [inhibitor, partial curve, poor fit] |  |
| COc1ccc(OCC(=O)Nc2ccccc2N2CCN(C)CC2)cc1 |  | inactive: -8.34% [at 46.1 µM] |
| CCN(C(=O)CCN1C(=O)/C(=C/c2ccccc2)SC1=S)C1CCS(=O)(=O)C1 (centres undefined) | inconclusive: 25.1 µM [inhibitor, partial curve, poor fit] |  |
| CC(/C=N/NC(=O)c1nnn(-c2nonc2N)c1C)=C\c1ccccc1 |  | inactive: 1.05% [at 46.1 µM] |
| CCOCCCNC(=O)C(c1ccc(C)cc1)N(Cc1cccs1)C(=O)CNC(C)=O (centres undefined) | inconclusive: 0.447 µM [activator, partial curve, poor fit] |  |
| Nc1ccccc1-c1nnc(-c2ccccc2N)n1N | inconclusive: 20 µM [activator, partial curve, poor fit] |  |
| COc1cccc(C(=O)NCCS(=O)(=O)N2CCCCC2)c1 | inconclusive: 2.82 µM [inhibitor, single point] |  |

| SMILES | Potency | activity change, negative = inhibition |
| --- | --- | --- |
| COc1cccc([C@@H]2Oc3ccc(OC)cc3/C(=N/OC[C@@H](C)[C@H](OCc3ccccc3)C(C)C)[C@@H]2O)c1 |  | inactive: 9.99% [at 14.2 µM] |
| CCCCCn1c(CNC(=O)c2cccs2)nc2ccccc21 | inconclusive: 14.6 µM [inhibitor, partial curve, poor fit] |  |
| COc1ccc(N2CCC(CNC(=S)Nc3cc(C)cc(C)c3)C2)cc1 (centres undefined) | inconclusive: 20 µM [inhibitor, partial curve, poor fit] |  |
| CC1COC(C)(CC(=O)NN2C(=O)c3ccccc3C2=O)O1 (centres undefined) |  | inactive: -2.97% [at 46.1 µM] |
| CCN(CC)S(=O)(=O)c1ccc(OC)c(NC(=O)COc2ccc3c(C)cc(=O)oc3c2)c1 |  | inactive: -1.24% |
| COc1cc(C2CC(=O)N(c3ccccc3)C3=C2C(=O)OC3)cc(OC)c1OC (centres undefined) |  | inactive: 0.752% [at 46.1 µM] |
| O=C(Cn1ncc(N2CCCC2)c(Cl)c1=O)c1ccc(Cl)cc1 | inconclusive: 3.16 µM [activator, full curve, poor fit] |  |
| CCOC(=O)c1c(NC(=S)NC(=O)c2ccc(Cn3cc(Cl)cn3)o2)sc2c1CCCCC2 | inconclusive: 10 µM [inhibitor, partial curve] |  |
| COc1ccc(OC)c(NC(=O)Cn2c(C)nc3ccccc3c2=O)c1 |  | inactive: -20.9% [at 46.1 µM] |
| COc1ccc(N2C(=O)/C(=C\c3ccco3)N=C2SCC(N)=O)cc1Cl | inconclusive: 10 µM [inhibitor, partial curve, poor fit] |  |
| O=Cc1cn(CC(O)CN2CCCCC2)c2ccccc12 (centres undefined) | inconclusive: 4.11 µM [inhibitor, partial curve, poor fit] |  |
| O=C(CCS(=O)(=O)c1ccccc1)NC12CC3CC(CC(C3)C1)C2 | inconclusive: 22.4 µM [inhibitor, single point] |  |
| Cc1ccc(NC(=O)c2cc(Cl)nc3ccccc23)cc1 | inconclusive: 6.51 µM [inhibitor, single point] |  |
| COc1ccc(C2=NN(C(=O)c3cccs3)C(c3ccc(OC)cc3)C2)cc1 (centres undefined) | inconclusive: 35.5 µM [inhibitor, single point] |  |
| CCOC(=O)c1ccc(NC(=S)N(CCCN2CCN(CC)CC2)Cc2ccco2)cc1 | inconclusive: 20 µM [inhibitor, single point] |  |
| C[n+]1c(/C=C/c2ccc(O)cc2)ccc2ccccc21 | inconclusive: 20 µM [activator, partial curve, poor fit] |  |
| O=[N+]([O-])c1cc(C(F)(F)F)ccc1NCCNC(=S)Nc1ccc(Cl)cc1 | inconclusive: 29.1 µM [inhibitor, single point] |  |
| CCc1ccc(NC(=O)N2CCc3ccccc3C2)cc1 | inconclusive: 35.5 µM [inhibitor, single point] |  |
| COCCSc1nnc(NC(=O)COc2ccc3c(c2)OCO3)s1 |  | inactive: 13.3% [at 46.1 µM] |
| CCC(C)NC(=O)C1CCN(S(=O)(=O)CC)CC1 (centres undefined) | inconclusive: 16.4 µM [activator, single point] |  |
| CCOC(=O)c1c(NC(=O)CN(CC)CC)sc2c1CCN(C(=O)OCC)C2 | inconclusive: 25.9 µM [inhibitor, single point] |  |
| C=CCOC(=O)C1=C(C)NC(SCC(N)=O)=C(C#N)C1c1cccs1 (centres undefined) | inconclusive: 2.82 µM [activator, partial curve, poor fit] |  |
| CCOCc1nnc(NC(=O)C2c3ccccc3Oc3ccccc32)s1 | inconclusive: 35.5 µM [inhibitor, partial curve, poor fit] |  |
